Source: publication PMC11965454, “Simultaneous determination of lesinurad and co-administered drugs used in management of gout comorbidities to uncover potential pharmacokinetic interaction in rat plasma” (Scientific Reports, 2025)

Key:
[1] = Stability of the studied drugs in rat plasma (freeze-thaw, bench-top, long-term), HPLC-DAD; type: in vitro ADME; conditions: n = 3
Protocol: Stability studies were conducted by preparing low, medium and high plasma QC samples in triplicates under different conditions and comparing them with freshly prepared quality control samples. Namely, three freeze-thaw cycles (freeze at -20 °C then thaw at room temperature for three cycles), bench-top stability testing for 6 h at room temperature and long-term stability testing for 35 days at -20 °C. Moreover, investigation of the stability of LES, ETC, EPL, AMD and DIC stock solutions was performed by keeping the stock solutions for 30 days at 4 °C or for 6 h at room temperature.

[2] = Stock solution stability (methanol), HPLC-DAD; type: physicochemical; conditions: stock solution in methanol, n = 3

In the case of `CCCCc1oc2ccccc2c1C(=O)c1cc(I)c(OCCN(CC)CC)c(I)c1` [AMD, amiodarone], the recovery at 6 h, 1000 ng/ml ([1]; rat plasma, 1000 ng/ml, 6 h at room temperature) is reported as 93.7%, the recovery at 35 days, 1000 ng/ml ([1]; rat plasma, 1000 ng/ml, 35 days at -20 °C) is reported as 91.3% and the recovery at 1000 ng/ml ([1]; rat plasma, 1000 ng/ml, three cycles -20 °C / room temperature) is reported as 91.3%. It also gave a recovery at 6 h, 10000 ng/ml ([1]; rat plasma, 10,000 ng/ml, 6 h at room temperature) of 96.3%, a recovery at 35 days, 10000 ng/ml ([1]; rat plasma, 10,000 ng/ml, 35 days at -20 °C) of 95.7% and a recovery at 10000 ng/ml ([1]; rat plasma, 10,000 ng/ml, three cycles -20 °C / room temperature) of 92.4%. The recovery at 6 h, 25000 ng/ml ([1]; rat plasma, 25,000 ng/ml, 6 h at room temperature) was 94.8%, the recovery at 35 days, 25000 ng/ml ([1]; rat plasma, 25,000 ng/ml, 35 days at -20 °C) was 92.5% and the recovery at 25000 ng/ml ([1]; rat plasma, 25,000 ng/ml, three cycles -20 °C / room temperature) was 95.2%. It also gave a recovery at 6 h, 1000 ng/ml ([2]; 1000 ng/ml, 6 h at room temperature, read-out: Stock solution stability (room temp.) Recovery%) of 100%, a recovery at 30 days, 1000 ng/ml ([2]; 1000 ng/ml, 30 days at 4 °C) of 102% and a recovery at 6 h, 10000 ng/ml ([2]; 10,000 ng/ml, 6 h at room temperature, read-out: Stock solution stability (room temp.) Recovery%) of 101%. The recovery at 30 days, 10000 ng/ml ([2]; 10,000 ng/ml, 30 days at 4 °C) was 99.6%, the recovery at 6 h, 25000 ng/ml ([2]; 25,000 ng/ml, 6 h at room temperature, read-out: Stock solution stability (room temp.) Recovery%) was 102% and the recovery at 30 days, 25000 ng/ml ([2]; 25,000 ng/ml, 30 days at 4 °C) was 102%.
